Laboratory results: PMC11549291
These are yes or no findings as the source states them, for the method shown. In cells and extracts the contact can be indirect. Some binding calls cover weakened binding; strength is not graded here.

Protein sequences, listed by entry. Tags and fused reporters are not part of them.
UniProt Q7RTP6: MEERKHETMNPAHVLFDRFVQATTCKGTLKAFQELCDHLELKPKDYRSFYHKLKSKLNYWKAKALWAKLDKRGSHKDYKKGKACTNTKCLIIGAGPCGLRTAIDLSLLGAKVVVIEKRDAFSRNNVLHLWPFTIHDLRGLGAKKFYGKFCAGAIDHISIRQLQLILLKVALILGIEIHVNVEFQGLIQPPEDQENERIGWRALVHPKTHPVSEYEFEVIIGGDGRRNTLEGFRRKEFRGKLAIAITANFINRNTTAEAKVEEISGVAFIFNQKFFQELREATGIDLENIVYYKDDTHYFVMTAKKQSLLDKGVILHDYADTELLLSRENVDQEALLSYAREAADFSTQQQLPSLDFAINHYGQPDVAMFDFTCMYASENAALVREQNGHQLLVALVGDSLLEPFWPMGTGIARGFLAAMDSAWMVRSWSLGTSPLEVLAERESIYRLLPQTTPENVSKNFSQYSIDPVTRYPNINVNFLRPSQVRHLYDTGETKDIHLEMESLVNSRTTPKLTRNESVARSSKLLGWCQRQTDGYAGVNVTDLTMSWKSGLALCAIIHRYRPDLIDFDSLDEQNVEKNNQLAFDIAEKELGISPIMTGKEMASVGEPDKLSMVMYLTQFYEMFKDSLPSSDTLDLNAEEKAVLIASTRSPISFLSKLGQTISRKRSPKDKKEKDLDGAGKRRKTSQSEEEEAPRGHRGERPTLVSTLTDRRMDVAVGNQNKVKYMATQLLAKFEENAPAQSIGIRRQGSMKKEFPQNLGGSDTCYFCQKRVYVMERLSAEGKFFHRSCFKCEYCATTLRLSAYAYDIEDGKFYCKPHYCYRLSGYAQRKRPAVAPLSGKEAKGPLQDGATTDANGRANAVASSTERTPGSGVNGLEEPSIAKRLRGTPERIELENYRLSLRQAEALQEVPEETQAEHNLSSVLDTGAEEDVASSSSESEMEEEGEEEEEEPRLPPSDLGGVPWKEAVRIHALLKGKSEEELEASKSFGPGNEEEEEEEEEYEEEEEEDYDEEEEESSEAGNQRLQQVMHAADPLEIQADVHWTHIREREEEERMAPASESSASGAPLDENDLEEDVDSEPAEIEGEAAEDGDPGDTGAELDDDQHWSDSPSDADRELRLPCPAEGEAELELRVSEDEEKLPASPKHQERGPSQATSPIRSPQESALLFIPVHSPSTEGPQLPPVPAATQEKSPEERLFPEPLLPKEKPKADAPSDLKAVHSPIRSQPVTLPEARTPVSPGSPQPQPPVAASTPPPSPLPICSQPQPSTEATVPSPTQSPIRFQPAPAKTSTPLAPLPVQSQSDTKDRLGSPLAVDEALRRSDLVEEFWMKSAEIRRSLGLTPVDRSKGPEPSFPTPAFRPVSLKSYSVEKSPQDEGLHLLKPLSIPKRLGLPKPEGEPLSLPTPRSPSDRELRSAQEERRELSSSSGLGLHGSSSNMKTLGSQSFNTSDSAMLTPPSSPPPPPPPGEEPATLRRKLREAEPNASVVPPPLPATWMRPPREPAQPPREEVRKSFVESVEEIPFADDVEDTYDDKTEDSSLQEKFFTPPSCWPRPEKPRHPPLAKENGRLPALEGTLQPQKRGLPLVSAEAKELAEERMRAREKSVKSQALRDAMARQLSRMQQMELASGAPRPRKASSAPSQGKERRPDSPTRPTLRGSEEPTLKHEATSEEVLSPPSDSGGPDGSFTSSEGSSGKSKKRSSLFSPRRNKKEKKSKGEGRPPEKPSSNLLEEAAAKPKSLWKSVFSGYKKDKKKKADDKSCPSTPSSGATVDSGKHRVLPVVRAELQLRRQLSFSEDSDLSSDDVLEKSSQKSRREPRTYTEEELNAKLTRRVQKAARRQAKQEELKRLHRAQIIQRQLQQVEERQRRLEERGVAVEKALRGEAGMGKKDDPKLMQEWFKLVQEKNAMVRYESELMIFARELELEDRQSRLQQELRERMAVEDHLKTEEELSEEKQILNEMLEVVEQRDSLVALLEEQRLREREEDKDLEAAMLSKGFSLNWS

Experiments:
[1] = molecular target: T1, serine/threonine checkpoint kinase CHK1 (human (endogenous in HEK-293; endogenous in human oocytes and embryos)) (UniProt O14757); assay: co-IP; HEK-293 lysate, endogenous proteins; IP with the CHK1 antibody or with the MICAL3 antibody, Protein A/G magnetic beads, western blot; also after treatment of the cells with the CHK1 inhibitor PF477736 (interaction enhanced)
T1 sequence: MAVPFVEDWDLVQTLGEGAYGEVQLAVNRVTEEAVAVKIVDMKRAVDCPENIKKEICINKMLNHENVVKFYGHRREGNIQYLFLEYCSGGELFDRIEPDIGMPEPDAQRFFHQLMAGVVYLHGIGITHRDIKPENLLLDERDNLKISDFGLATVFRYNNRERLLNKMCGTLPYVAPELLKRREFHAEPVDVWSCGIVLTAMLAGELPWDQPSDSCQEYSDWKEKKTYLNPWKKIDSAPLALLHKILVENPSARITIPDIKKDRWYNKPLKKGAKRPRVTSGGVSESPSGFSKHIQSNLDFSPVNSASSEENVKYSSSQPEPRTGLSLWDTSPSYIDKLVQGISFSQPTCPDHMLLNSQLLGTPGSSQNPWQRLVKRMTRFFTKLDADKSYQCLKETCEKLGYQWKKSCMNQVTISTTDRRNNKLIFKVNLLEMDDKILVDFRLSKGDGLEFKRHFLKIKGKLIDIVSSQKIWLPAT

[2] = molecular target: T1, serine/threonine checkpoint kinase CHK1 (human (endogenous in HEK-293; endogenous in human oocytes and embryos)); assay: proximity ligation; Duolink In Situ Red kit, fixed HEK-293 cells, rabbit anti-CHK1 and mouse anti-MICAL3 primary antibodies; negative control without primary antibodies
[3] = molecular target: T1, serine/threonine checkpoint kinase CHK1 (human (endogenous in HEK-293; endogenous in human oocytes and embryos)); assay: proximity ligation; Duolink In Situ Red kit, fixed human GV oocyte, 2-cell and 4-cell embryos, rabbit anti-CHK1 and mouse anti-MICAL3 primary antibodies; GV oocyte without primary antibodies as control
[4] = molecular target: T2, wild-type CHK1 (transfected construct) (UniProt O14757); assay: co-IP; HEK-293 cells transfected with constructs of wild-type or mutant CHK1; IP with the CHK1 antibody, western blot for MICAL3
T2 sequence: T1 sequence

Measured: binding

MICAL3 (from UniProt Q7RTP6 1-2002)
binds: [1] | [2] | [3] | [4]
